Results taken from patent CN111484554A.
Results are given in words; binding and its absence hold for the method and conditions named. Some results given as binding are weak or reduced against the parent protein; the word gives no strength.

Sequences of proteins named here, by UniProt entry; tags and fusion partners are left off. A change or cut given only in a name is not applied to a line headed by its entry. A line that says so, or that is headed by a name, gives the form on record, which may keep a tag or linker.
UniProt P41273: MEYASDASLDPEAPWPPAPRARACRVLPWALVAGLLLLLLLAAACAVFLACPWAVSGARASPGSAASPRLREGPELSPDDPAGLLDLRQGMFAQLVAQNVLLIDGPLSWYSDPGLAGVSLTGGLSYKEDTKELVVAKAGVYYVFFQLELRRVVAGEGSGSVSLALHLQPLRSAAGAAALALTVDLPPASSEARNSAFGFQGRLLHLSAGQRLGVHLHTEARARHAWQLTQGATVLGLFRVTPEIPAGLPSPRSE
4-1BB(24-180)-His重组蛋白 (4-1BB胞外段24-180位氨基酸, C端6个His) (Q07011, form named): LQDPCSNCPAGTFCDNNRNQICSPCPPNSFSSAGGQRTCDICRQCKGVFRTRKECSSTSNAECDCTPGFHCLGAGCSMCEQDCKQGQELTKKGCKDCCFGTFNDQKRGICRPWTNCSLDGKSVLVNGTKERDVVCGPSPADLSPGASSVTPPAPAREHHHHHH

Molecular target: 全长4-1BBL (表达于293T细胞, GFP标签) (UniProt P41273)
Test: flow cytometry on 293T cells expressing full-length 4-1BBL

Substance: 4-1BB(24-180)-His重组蛋白 (4-1BB胞外段24-180位氨基酸, C端6个His) (from UniProt Q07011 24-180) (receptor)
- binding: binds
